Data: the supplement of paper PMC12889115
This is one part of the list. Values are raw readings; no control value is given beside them.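 Primary screen: polymyxin B was added at a level permeabilizing Salmonella outer membranes while sparing inner membranes. DMSO wells, both with and without polymyxin B, established maximum growth. Plate-to-plate variation meant each plate was ranked on its own, and the lowest-OD600 compounds were selected as hits.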

Tested on: Salmonella enterica serovar Typhimurium SL1344
Test: bacterial growth OD600 after 18 h with compound and polymyxin B; higher = more bacterial growth (less inhibition)
Conditions: 50 µM, Mueller-Hinton broth

SMILES	bacterial growth OD600 (polymyxin B 1 µg/mL)	bacterial growth OD600 (polymyxin B 0.75 µg/mL)
COc1cc(NC(=O)CCC2CCCN(C(=O)c3ccoc3)C2)cc(OC)c1 (stereo unspecified)	0.877	–
CS(=O)(=O)N1CCC(C2CCN(Cc3ccc(Cl)cc3)C2)CC1 (stereo unspecified)	–	0.752
Cc1ccc(C(=O)Nc2cnn(-c3ccc(C(=O)N4CCC(c5ccc(F)cc5)C4)cc3)c2)c(C)c1 (stereo unspecified)	–	0.783
COc1ccc(-c2nn(-c3ccccc3C)cc2CN2CCC(OC)CC2)cc1F	0.735	–
COc1cccc(-c2cnc(-c3ccncc3)nc2C2CCN(Cc3cn(C)c4ccccc34)CC2)c1	–	0.023
Cc1cc(C(=O)N2CCCC(CNS(=O)(=O)c3cccs3)C2)c2ccc(F)cc2n1 (stereo unspecified)	0.862	–
COCC1CCCN(c2nc3nonc3nc2NCc2cccs2)C1 (stereo unspecified)	0.875	–
CC#CCN(Cc1ccco1)C(=O)c1cn(CC2COc3ccccc3O2)nn1 (stereo unspecified)	0.7	–
COc1ccc(-c2nc(CN3CCC(Oc4ccccc4F)CC3)c(C)o2)cc1OC	0.745	–
Cc1cc(C)n(CCCN2CC[C@@H](N3CCN(c4ccccn4)CC3)[C@H](O)C2)n1	–	0.836
CSCCC(=O)N1CCCC(Nc2ccc(C(C)C)cc2)C1 (stereo unspecified)	0.92	–
COc1cccc(-n2cc(CN(C)C(=O)c3cn(Cc4ccccc4C)nn3)cn2)c1	0.589	–
CCc1ccc(CN(C)CC2CCCN(CCc3ccc(OC)cc3)C2)o1 (stereo unspecified)	0.964	–
COc1ccc(CN2CCN(Cc3cnc(-c4cccc(C)c4)nc3)CC2CCO)cc1C (stereo unspecified)	0.909	–
COc1ccc(CN2CCOc3ccc(C(O)Cc4ccccc4)cc3C2)c(Cl)c1OC (stereo unspecified)	–	0.669
COc1ccc(C(=O)NCC2CCCCC2)cc1OC1CCN(C(C)=O)CC1	1.06	–

Record cards, from the list above.
COc1ccc(CN2CCN(Cc3cnc(-c4cccc(C)c4)nc3)CC2CCO)cc1C (stereo unspecified) as listed: bacterial growth OD600 (polymyxin B 1 µg/mL): 0.909
COc1ccc(C(=O)NCC2CCCCC2)cc1OC1CCN(C(C)=O)CC1 as listed: bacterial growth OD600 (polymyxin B 1 µg/mL): 1.06

The results go on:

SMILES	bacterial growth OD600 (polymyxin B 1 µg/mL)	bacterial growth OD600 (polymyxin B 0.75 µg/mL)
CC1=C(C(=O)N2CCCC(C(=O)c3ccc(-c4ccccc4)cc3)C2)OCCO1 (stereo unspecified)	0.004	–
O=C(Nc1ccc(N2CCC(NC(CCn3ccnc3)c3ccccc3)CC2)cc1)c1ccccc1F (stereo unspecified)	–	0.832
COc1cc(CN2CCOc3ccc(C(O)CCc4ccccc4)cc3C2)cc(OC)c1 (stereo unspecified)	–	-0.002
CC(=O)NCCC1CCN(c2nc3nonc3nc2N2CCSCC2)CC1	–	0.784
O=C(CN1CCCCC1)N1CCCC(N2CCN(c3cccc(Cl)c3)CC2)C1 (stereo unspecified)	0.884	–
Cn1nc(C(=O)N2CCc3onc(-c4ccccc4F)c3C2)ccc1=O	–	0.752
O=C(c1cn(CCc2ccccc2)nn1)N1CCC(OCc2ccccc2)CC1	0.944	–
CC(=O)N1CCC[C@H]1C(=O)NCc1cccnc1Oc1ccccc1C	–	0.954
CN(C)CCC1CN(Cc2nc3c(s2)CCCC3)CCO1 (stereo unspecified)	–	0.862
O=C(NC1CCCN(CCc2ccccc2)C1)c1ccccc1C(F)(F)F (stereo unspecified)	–	0.981
COCCNC(=O)c1cccc(OC2CCN(Cc3ccnc4ccccc34)CC2)c1	0.941	–
CCCS(=O)(=O)NCc1cc(NS(=O)(=O)c2cccc(C(F)(F)F)c2)cc(C(=O)OC)c1	–	0.554
Cc1noc(C)c1C(=O)NC1CCCc2nc(-c3ccccc3)ncc21 (stereo unspecified)	1.03	–
COc1ccc(CCN2CCCC(CN(C)Cc3cnn(C(C)C)c3)C2)cc1 (stereo unspecified)	0.841	–
Cc1c(CN2CCCC(C(=O)c3cccc(OC(C)C)c3)C2)c(=O)n(-c2ccccc2)n1C (stereo unspecified)	0.773	–
